{"source": "paper PMC12348835", "about": "“Design, Docking Analysis, and Structure–Activity Relationship of Ferrocene-Modified Tyrosine Kinase Inhibitors: Insights into BCR-ABL Interactions” (Molecules, 2025)", "type_in_all_cases": "cell-based", "key": {"LAMA-84": {"tested_on": "LAMA-84", "assay": "MTT cell viability assay, LAMA-84", "conditions": "Homo sapiens, 72 h, ± standard deviation", "protocol": "(§1) Cell viability was determined using the MTT colorimetric assay. […] Statistical significance was determined at p ≤ 0.05."}, "BV-173": {"tested_on": "BV-173", "assay": "MTT cell viability assay, BV-173", "conditions": "Homo sapiens, 72 h, ± standard deviation", "protocol": "as §1"}, "K-562": {"tested_on": "K-562", "assay": "MTT cell viability assay, K-562", "conditions": "Homo sapiens, K562, 72 h, ± standard deviation", "protocol": "as §1"}, "AR-230": {"tested_on": "AR-230", "assay": "MTT cell viability assay, AR-230", "conditions": "Homo sapiens, 72 h, ± standard deviation", "protocol": "as §1"}}}
{"compound": "Cc1ccc(NC(=O)c2ccc(CN3CCN(C)CC3)cc2)cc1Nc1nccc(-c2cccnc2)n1", "note": "[imatinib, reference compound]", "values": [{"measurement": "IC50", "setting": "LAMA-84", "result": "0.5 ± 0.05", "unit": "µM"}, {"measurement": "IC50", "setting": "BV-173", "result": "22.8 ± 4.8", "unit": "µM"}, {"measurement": "IC50", "setting": "K-562", "result": "45.5 ± 5", "unit": "µM"}, {"measurement": "IC50", "setting": "AR-230", "result": "4.7 ± 1", "unit": "µM"}]}
